Assay results reported in the supplement of paper PMC10032668.
The list shows a part of the results. Only hits are listed; about a third recur on repeated control peptides.

Protein sequences, listed by entry. Tags and fused reporters are not part of them.
CDK9, P50750, UniProt P50750, whole entry: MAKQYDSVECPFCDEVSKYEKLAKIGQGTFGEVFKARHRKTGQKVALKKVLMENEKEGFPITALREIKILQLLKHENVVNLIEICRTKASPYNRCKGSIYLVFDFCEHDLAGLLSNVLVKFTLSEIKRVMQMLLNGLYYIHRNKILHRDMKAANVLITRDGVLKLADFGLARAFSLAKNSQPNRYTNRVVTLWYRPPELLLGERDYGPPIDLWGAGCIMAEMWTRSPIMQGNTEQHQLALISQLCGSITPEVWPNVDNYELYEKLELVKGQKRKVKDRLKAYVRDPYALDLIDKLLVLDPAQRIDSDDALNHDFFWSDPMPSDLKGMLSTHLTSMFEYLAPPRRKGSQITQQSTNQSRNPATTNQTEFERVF
EIF3H, O15372, UniProt O15372, whole entry: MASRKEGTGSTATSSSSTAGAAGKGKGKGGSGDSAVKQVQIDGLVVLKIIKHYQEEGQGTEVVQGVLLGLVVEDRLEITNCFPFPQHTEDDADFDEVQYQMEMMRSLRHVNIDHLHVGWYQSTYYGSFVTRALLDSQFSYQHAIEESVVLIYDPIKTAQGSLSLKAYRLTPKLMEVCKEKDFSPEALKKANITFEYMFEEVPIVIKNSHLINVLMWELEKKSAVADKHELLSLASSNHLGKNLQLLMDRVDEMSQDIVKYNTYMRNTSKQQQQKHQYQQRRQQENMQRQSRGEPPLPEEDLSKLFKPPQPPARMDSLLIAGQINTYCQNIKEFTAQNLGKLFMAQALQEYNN
HDAC1, Q13547, UniProt Q13547, whole entry: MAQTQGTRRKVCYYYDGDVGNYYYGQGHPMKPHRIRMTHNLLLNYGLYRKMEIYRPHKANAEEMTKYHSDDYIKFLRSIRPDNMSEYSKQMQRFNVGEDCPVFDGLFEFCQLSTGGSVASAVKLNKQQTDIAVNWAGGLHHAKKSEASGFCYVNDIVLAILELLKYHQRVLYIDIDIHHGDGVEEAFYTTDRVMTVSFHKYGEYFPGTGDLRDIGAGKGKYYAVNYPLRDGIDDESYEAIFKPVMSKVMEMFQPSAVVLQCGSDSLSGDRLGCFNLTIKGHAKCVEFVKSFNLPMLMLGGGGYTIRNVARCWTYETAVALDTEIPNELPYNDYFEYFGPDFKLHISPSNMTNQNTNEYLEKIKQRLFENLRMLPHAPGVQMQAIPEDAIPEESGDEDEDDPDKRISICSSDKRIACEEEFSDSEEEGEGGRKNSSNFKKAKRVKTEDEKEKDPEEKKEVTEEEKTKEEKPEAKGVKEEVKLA
MORF4L1, Q9UBU8, UniProt Q9UBU8, whole entry: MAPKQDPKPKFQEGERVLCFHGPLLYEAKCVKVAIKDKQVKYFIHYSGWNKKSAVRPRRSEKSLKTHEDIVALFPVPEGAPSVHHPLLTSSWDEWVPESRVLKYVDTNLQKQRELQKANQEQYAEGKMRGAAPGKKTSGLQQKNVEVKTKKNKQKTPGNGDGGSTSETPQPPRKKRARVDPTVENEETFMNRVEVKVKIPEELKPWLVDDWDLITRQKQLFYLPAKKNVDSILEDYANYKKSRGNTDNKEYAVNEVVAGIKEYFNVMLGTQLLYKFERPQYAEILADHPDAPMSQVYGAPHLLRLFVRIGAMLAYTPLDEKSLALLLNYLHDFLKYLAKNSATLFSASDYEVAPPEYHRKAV
NELFE, P18615, UniProt P18615, whole entry: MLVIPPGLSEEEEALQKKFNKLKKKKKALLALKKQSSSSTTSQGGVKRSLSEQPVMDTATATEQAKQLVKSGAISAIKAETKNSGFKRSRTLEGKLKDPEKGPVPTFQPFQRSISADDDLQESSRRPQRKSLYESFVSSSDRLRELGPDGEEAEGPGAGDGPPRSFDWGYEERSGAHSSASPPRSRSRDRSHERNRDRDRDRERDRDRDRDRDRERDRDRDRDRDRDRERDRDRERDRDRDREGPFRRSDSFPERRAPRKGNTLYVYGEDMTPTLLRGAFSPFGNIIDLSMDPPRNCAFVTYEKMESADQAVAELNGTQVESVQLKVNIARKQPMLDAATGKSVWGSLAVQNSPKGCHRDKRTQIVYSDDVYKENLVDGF
SMARCA4, P51532, UniProt P51532, whole entry: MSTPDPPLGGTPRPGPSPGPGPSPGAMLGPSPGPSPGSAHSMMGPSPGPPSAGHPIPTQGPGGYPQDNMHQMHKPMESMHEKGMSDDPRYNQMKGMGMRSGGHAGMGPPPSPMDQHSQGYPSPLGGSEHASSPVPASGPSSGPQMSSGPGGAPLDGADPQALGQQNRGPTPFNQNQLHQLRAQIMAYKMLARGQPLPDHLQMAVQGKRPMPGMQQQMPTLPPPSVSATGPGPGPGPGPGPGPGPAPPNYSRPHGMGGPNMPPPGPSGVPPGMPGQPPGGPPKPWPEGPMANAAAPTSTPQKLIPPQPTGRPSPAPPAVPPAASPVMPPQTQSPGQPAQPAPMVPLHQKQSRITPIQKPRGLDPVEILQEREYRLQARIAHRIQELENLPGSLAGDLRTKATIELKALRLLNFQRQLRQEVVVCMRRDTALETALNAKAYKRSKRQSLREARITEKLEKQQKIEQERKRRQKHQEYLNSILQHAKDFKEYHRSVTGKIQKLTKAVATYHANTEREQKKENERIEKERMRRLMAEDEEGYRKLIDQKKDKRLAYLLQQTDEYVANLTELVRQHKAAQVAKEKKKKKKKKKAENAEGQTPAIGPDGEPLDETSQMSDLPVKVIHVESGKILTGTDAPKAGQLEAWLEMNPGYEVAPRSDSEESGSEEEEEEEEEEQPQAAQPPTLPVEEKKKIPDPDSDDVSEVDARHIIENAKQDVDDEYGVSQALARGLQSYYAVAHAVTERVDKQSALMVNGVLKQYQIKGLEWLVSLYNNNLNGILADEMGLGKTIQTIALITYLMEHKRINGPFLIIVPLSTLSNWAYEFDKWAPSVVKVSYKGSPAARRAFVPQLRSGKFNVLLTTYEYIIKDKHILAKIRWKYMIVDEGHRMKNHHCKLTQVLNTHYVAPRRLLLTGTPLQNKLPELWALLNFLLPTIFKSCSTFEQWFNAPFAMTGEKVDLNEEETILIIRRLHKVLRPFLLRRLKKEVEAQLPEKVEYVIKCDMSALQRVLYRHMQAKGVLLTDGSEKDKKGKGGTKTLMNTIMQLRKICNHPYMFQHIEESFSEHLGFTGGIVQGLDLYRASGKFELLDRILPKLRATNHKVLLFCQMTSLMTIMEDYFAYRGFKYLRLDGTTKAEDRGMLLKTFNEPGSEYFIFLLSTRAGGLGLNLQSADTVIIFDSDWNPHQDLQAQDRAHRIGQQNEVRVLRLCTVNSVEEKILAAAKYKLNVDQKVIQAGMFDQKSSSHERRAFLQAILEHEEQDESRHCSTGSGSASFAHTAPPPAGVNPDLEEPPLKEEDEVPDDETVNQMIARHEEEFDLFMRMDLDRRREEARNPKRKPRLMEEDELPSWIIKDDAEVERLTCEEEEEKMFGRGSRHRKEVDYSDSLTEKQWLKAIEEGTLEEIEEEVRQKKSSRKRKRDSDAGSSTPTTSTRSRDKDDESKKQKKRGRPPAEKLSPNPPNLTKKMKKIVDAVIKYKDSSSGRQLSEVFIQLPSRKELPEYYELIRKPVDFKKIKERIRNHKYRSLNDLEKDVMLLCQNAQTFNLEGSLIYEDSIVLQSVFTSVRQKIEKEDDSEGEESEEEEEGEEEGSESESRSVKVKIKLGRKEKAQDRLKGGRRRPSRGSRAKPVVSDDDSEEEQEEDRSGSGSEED
SNRNP70, P08621, UniProt P08621, whole entry: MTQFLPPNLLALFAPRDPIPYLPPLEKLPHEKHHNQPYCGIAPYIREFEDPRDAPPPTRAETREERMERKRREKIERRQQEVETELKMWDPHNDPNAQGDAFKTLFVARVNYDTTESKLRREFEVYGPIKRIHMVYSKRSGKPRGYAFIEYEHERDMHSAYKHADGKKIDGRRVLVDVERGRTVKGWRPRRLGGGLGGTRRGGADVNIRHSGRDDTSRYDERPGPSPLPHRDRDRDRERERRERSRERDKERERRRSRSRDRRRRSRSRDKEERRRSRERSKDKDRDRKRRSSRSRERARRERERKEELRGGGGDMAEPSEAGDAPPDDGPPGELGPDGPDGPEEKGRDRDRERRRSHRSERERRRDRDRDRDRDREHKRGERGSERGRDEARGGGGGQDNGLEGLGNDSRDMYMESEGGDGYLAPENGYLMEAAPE
TPX2, Q9ULW0, UniProt Q9ULW0, whole entry: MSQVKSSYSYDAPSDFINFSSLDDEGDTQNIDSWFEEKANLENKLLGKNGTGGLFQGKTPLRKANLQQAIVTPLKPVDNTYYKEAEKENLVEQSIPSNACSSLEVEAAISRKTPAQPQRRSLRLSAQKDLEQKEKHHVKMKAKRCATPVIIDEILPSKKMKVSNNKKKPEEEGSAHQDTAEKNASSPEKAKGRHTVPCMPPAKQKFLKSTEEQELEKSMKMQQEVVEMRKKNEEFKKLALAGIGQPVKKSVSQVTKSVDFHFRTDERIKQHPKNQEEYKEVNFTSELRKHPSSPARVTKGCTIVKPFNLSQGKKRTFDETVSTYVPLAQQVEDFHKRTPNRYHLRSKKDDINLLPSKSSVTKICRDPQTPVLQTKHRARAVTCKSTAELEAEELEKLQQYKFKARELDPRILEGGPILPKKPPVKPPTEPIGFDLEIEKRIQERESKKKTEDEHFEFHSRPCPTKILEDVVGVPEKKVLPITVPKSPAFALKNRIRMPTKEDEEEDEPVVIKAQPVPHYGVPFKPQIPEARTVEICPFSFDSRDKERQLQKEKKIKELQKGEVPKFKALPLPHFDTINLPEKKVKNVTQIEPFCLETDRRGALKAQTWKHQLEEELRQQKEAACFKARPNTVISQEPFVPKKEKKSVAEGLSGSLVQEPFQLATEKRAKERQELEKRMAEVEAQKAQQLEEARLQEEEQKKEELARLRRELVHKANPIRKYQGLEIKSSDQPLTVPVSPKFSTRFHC

Assays:
Experiment in all cases: PRISMA enrichment of interactor (LFQ) in peptide spot vs all other peptide spots (log2 fold change); higher = stronger / more specific binding of the interactor to the peptide
ARMC6, Q6NXE6 = molecular target: ARMC6, Q6NXE6
Experimental: (§1)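 PRISMA: 15-aa overlapping tiles (offset 8 aa) of 60 microproteins, plus SOS1/GLUT1 control peptides, were spot-synthesized on cellulose membranes in triplicate. Membranes were incubated with benzonase-treated HEK293T lysate, and bound proteins were identified by LC-MS/MS with LFQ. Enrichment is the log2 fold change of each protein in one spot versus all other spots. Only interactors passing the significance cutoff are listed.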

ASNS, P08243 = molecular target: ASNS, P08243
Experimental: as §1

BRI3BP, Q8WY22 = molecular target: BRI3BP, Q8WY22
Experimental: as §1

CDK9, P50750 = molecular target: CDK9, P50750
Experimental: as §1

CENPB, P07199 = molecular target: CENPB, P07199
Experimental: as §1

CLASP2, O75122 = molecular target: CLASP2, O75122
Experimental: as §1

CTNND1, O60716 = molecular target: CTNND1, O60716
Experimental: as §1

DNAJA2, O60884 = molecular target: DNAJA2, O60884
Experimental: as §1

DNAJC7, Q99615 = molecular target: DNAJC7, Q99615
Experimental: as §1

EIF3H, O15372 = molecular target: EIF3H, O15372
Experimental: as §1

GLYR1, Q49A26 = molecular target: GLYR1, Q49A26
Experimental: as §1

GMPPA, Q96IJ6 = molecular target: GMPPA, Q96IJ6
Experimental: as §1

HDAC1, Q13547 = molecular target: HDAC1, Q13547
Experimental: as §1

HK2, P52789 = molecular target: HK2, P52789
Experimental: as §1

HLA-B = molecular target: HLA-B
Experimental: as §1

HNRNPF, P52597 = molecular target: HNRNPF, P52597
Experimental: as §1

MACF1 = molecular target: MACF1
Experimental: as §1

MAZ, P56270 = molecular target: MAZ, P56270
Experimental: as §1

MORF4L1, Q9UBU8 = molecular target: MORF4L1, Q9UBU8
Experimental: as §1

MOV10, Q9HCE1 = molecular target: MOV10, Q9HCE1
Experimental: as §1

MRPS21, P82921 = molecular target: MRPS21, P82921
Experimental: as §1

MRPS26, Q9BYN8 = molecular target: MRPS26, Q9BYN8
Experimental: as §1

MTCH2, Q9Y6C9 = molecular target: MTCH2, Q9Y6C9
Experimental: as §1

MTX2, O75431 = molecular target: MTX2, O75431
Experimental: as §1

NELFE, P18615 = molecular target: NELFE, P18615
Experimental: as §1

NFS1, Q9Y697 = molecular target: NFS1, Q9Y697
Experimental: as §1

NOL8, Q76FK4 = molecular target: NOL8, Q76FK4
Experimental: as §1

NUP88, Q99567 = molecular target: NUP88, Q99567
Experimental: as §1

PAWR, Q96IZ0 = molecular target: PAWR, Q96IZ0
Experimental: as §1

PSIP1, O75475 = molecular target: PSIP1, O75475
Experimental: as §1

PSMA4, P25789 = molecular target: PSMA4, P25789
Experimental: as §1

RRP9, O43818 = molecular target: RRP9, O43818
Experimental: as §1

SDE2, Q6IQ49 = molecular target: SDE2, Q6IQ49
Experimental: as §1

SEC22B, O75396 = molecular target: SEC22B, O75396
Experimental: as §1

SMARCA4, P51532 = molecular target: SMARCA4, P51532
Experimental: as §1

SNRNP70, P08621 = molecular target: SNRNP70, P08621
Experimental: as §1

SUPT5H, O00267 = molecular target: SUPT5H, O00267
Experimental: as §1

TIA1, P31483 = molecular target: TIA1, P31483
Experimental: as §1

TPX2, Q9ULW0 = molecular target: TPX2, Q9ULW0
Experimental: as §1

UBTF, P17480 = molecular target: UBTF, P17480
Experimental: as §1

UFL1, O94874 = molecular target: UFL1, O94874
Experimental: as §1

WDR5, P61964 = molecular target: WDR5, P61964
Experimental: as §1

B1: SNHG16 (peptide)
chain: MATPVGVEHGEQSQA
PRISMA enrichment of interactor (log2) (ARMC6, Q6NXE6): 6.09
PRISMA enrichment of interactor (log2) (ASNS, P08243): 7.5
PRISMA enrichment of interactor (log2) (BRI3BP, Q8WY22): 4.62
PRISMA enrichment of interactor (log2) (CDK9, P50750): 6.52
PRISMA enrichment of interactor (log2) (CENPB, P07199): 7.87
PRISMA enrichment of interactor (log2) (CLASP2, O75122): 5.73
PRISMA enrichment of interactor (log2) (CTNND1, O60716): 5.8
PRISMA enrichment of interactor (log2) (DNAJA2, O60884): 4.71
PRISMA enrichment of interactor (log2) (DNAJC7, Q99615): 8.05
PRISMA enrichment of interactor (log2) (EIF3H, O15372): 10.2
PRISMA enrichment of interactor (log2) (GLYR1, Q49A26): 6.38
PRISMA enrichment of interactor (log2) (GMPPA, Q96IJ6): 8.07
PRISMA enrichment of interactor (log2) (HDAC1, Q13547): 5.46
PRISMA enrichment of interactor (log2) (HK2, P52789): 6.24
PRISMA enrichment of interactor (log2) (HLA-B): 6.67
PRISMA enrichment of interactor (log2) (HNRNPF, P52597): 5.46
PRISMA enrichment of interactor (log2) (MACF1): 5.76
PRISMA enrichment of interactor (log2) (MAZ, P56270): 7.81
PRISMA enrichment of interactor (log2) (MORF4L1, Q9UBU8): 5.05
PRISMA enrichment of interactor (log2) (MOV10, Q9HCE1): 8.02
PRISMA enrichment of interactor (log2) (MRPS21, P82921): 4.91
PRISMA enrichment of interactor (log2) (MRPS26, Q9BYN8): 5.56
PRISMA enrichment of interactor (log2) (MTCH2, Q9Y6C9): 6.27
PRISMA enrichment of interactor (log2) (MTX2, O75431): 5.91
PRISMA enrichment of interactor (log2) (NELFE, P18615): 5.72
PRISMA enrichment of interactor (log2) (NFS1, Q9Y697): 5.86
PRISMA enrichment of interactor (log2) (NOL8, Q76FK4): 4.36
PRISMA enrichment of interactor (log2) (NUP88, Q99567): 8.31
PRISMA enrichment of interactor (log2) (PAWR, Q96IZ0): 5.98
PRISMA enrichment of interactor (log2) (PSIP1, O75475): 7.83
PRISMA enrichment of interactor (log2) (PSMA4, P25789): 6.27
PRISMA enrichment of interactor (log2) (RRP9, O43818): 6.08
PRISMA enrichment of interactor (log2) (SDE2, Q6IQ49): 7.21
PRISMA enrichment of interactor (log2) (SEC22B, O75396): 4.92
PRISMA enrichment of interactor (log2) (SMARCA4, P51532): 5.98
PRISMA enrichment of interactor (log2) (SNRNP70, P08621): 4.59
PRISMA enrichment of interactor (log2) (SUPT5H, O00267): 8.33
PRISMA enrichment of interactor (log2) (TIA1, P31483): 5.76
PRISMA enrichment of interactor (log2) (TPX2, Q9ULW0): 4.63
PRISMA enrichment of interactor (log2) (UBTF, P17480): 5.4
PRISMA enrichment of interactor (log2) (UFL1, O94874): 7.12
PRISMA enrichment of interactor (log2) (WDR5, P61964): 6.14
